# Source: the supplement of paper PMC7858590
# ± gives the standard deviation of the averaged measurements. Whole data set: some 3,800 compounds, median “cell shape (eccentricity) Z-score vs DMSO control” near 1.1, cut for the lowest 2% near -4.7. Some of the results follow.
# System: human monocyte-derived macrophages (M0)
# Test: cell shape (eccentricity) Z-score vs DMSO control; higher = more elongated, M2-like morphology
# Conditions: 20 µM; 24 h; macrophage state: M0 (M-CSF)
row,Compound,cell shape (Z-score)
1,C[C@@]12C[C@@H](c3ccoc3)OC(=O)C1CC[C@]1(C)[C@H]2[C@H]2C=C[C@]1(O)C(=O)O2 (stereo partly specified),-0.795
2,COc1cc(OC)c(OC)cc1C=O,2.29
3,C[C@@H]1C[C@@H]([C@H](O)CC2CC(=O)NC(=O)C2)C(=O)[C@@H](C)C1,-0.745
4,C1CCc2nnnn2CC1,-3.13
5,COC1=CC(=O)OC(/C=C/c2ccccc2)C1 (stereo unspecified),3.39
6,COc1cc(C2c3cc4c(cc3CC3COC(=O)C32)OCO4)cc(OC)c1OC (stereo unspecified),-0.15
7,CC(Cc1ccc(O)cc1)NCC(O)c1cc(O)cc(O)c1 (stereo unspecified),1.87
8,COC(=O)C1=COC(C)C2CN3CCc4c([nH]c5cc(OC)ccc45)C3CC12 (stereo unspecified),-1.96
9,C=CC/C=C\C/C=C\CCCCCCCc1cc(O)cc(O)c1,1.19
10,CCCCC/C=C\C/C=C\C/C=C\C/C=C\CCCC(=O)NCc1ccc(O)c(OC)c1,-0.144
11,CCCCCCC(C)(C)c1ccc(C2CC(O)CCC2CCCO)c(O)c1 (stereo unspecified),2.5
12,OC[C@@H]1CCCN2CCCC[C@H]12,1.75
13,C[C@]12CCC3C(CC[C@]4(O)C[C@@H](O)CC[C@]34C=O)[C@@]1(O)CCC2C1=CC(=O)OC1 (stereo partly specified),-3.05
14,CO[C@H]1[C@@H](O)[C@@H](C)O[C@@H](OC2CCC3(C)C(CC[C@@H]4[C@@H]3CCC3(C)C(C5=CC(=O)OC5)C(O)CC43O)C2)[C@@H]1O (stereo partly specified),-1.74 ± 0.077
15,CC1(C)C(=O)C=C[C@@]2(C)C1C[C@@H](O)[C@]1(C)C2CC[C@@]2(C)[C@H](c3ccoc3)OC(=O)[C@H]3O[C@]321 (stereo partly specified),1.86
16,Cc1ncc(CNC(=O)N(CCCl)[N+][O-])c(N)n1,-0.322
17,Oc1ccc2c3c1OC1c4[nH]c5ccccc5c4CC4(O)C(C2)N(CC2CC2)CCC314 (stereo unspecified),2.11
18,CCC(Oc1ccc(Cl)cc1)C(=O)OC1CC2CCC(C1)N2C (stereo unspecified),3.78
19,CC(C)[N+](C)(CCC(C(N)=O)(c1ccccc1)c1ccccc1)C(C)C,1.08
20,O=C(CCCN1CCC2(CC1)C(=O)N(Cc1cccc(F)c1)CN2c1ccccc1)c1ccc(F)cc1,-0.999
21,CN1C2CCC1CC(OC(c1ccccc1)c1ccc(Cl)cc1)C2 (stereo unspecified),2.13
22,COP(=S)(OC)Oc1ccc(SC)c(C)c1,2.72
23,C=CCN1CCC23c4c5ccc(O)c4OC2C(=O)CCC3(O)C1C5 (stereo unspecified),3

# Structural class: those above containing a carbonyl joined to an NH by a bond outside any ring.
row,Compound,cell shape (Z-score)
10,CCCCC/C=C\C/C=C\C/C=C\C/C=C\CCCC(=O)NCc1ccc(O)c(OC)c1,-0.144
16,Cc1ncc(CNC(=O)N(CCCl)[N+][O-])c(N)n1,-0.322
19,CC(C)[N+](C)(CCC(C(N)=O)(c1ccccc1)c1ccccc1)C(C)C,1.08

# The listing continues.

row,Compound,cell shape (Z-score)
1,Fc1ccc(C(OCCN2CCN(CCCc3ccccc3)CC2)c2ccc(F)cc2)cc1,-0.302
2,C[C@]12CC[C@H]3[C@@H](CC[C@]4(O)C[C@@H](O)CC[C@]34C=O)[C@@]1(O)CC[C@@H]2C1=CC(=O)OC1,-0.816
3,O=C1CCCC2C3CC(CN12)[C@@H]1CCCCN1C3 (stereo partly specified),1.6
4,N=C(NCc1ccc(Cl)cc1)SCCCc1c[nH]cn1,0.48
5,O=C(NCCN1CCC2(CC1)C(=O)NCN2c1ccccc1)c1ccc2ccccc2c1,0.637
6,COc1cc(C)c(Oc2cc(C)cc(O)c2)c(O)c1,-1.26
7,N#CC(O[C@@H]1O[C@H](CO[C@@H]2O[C@H](CO)[C@@H](O)[C@H](O)[C@H]2O)[C@@H](O)[C@H](O)[C@H]1O)c1ccccc1 (stereo partly specified),0.645
8,CC[C@H]1CN2CCC1C[C@@H]2[C@@H](O)c1ccnc2ccc(OC)cc12 (stereo partly specified),1.7
9,OC12C3C4CC5C6C4C1C6C(C53)N2CCc1cccc(F)c1 (stereo unspecified),-1.2
10,CC(C)c1cc2c(cc1O)[C@@]1(C)C[C@@H](O)CC(C)(C)C1CC2 (stereo partly specified),1.57
11,CCC(COC(=O)c1cc(OC)c(OC)c(OC)c1)(c1ccccc1)N(C)C (stereo unspecified),3.35
12,Oc1ccc(Cl)cc1,-1.34
13,CC(=O)O[C@H]1C(=O)[C@@]2(C)C([C@H](OC(=O)c3ccccc3)[C@]3(O)C[C@H](O)C(C)=C1C3(C)C)[C@]1(OC(C)=O)CO[C@@H]1C[C@@H]2O (stereo partly specified),-3.7
14,O=C1CCC2(O)C3Cc4ccc(O)c5c4C2(CCN3CC2CC2)C1O5 (stereo unspecified),2.03
15,CC(=O)Oc1ccc(Cl)c2cccnc12,2.8
16,CC(O)(CS(=O)(=O)c1ccc(F)cc1)C(=O)Nc1ccc(C#N)c(C(F)(F)F)c1 (stereo unspecified),-3.38
17,COC(=O)CN1CN(c2ccccc2)C2(CCN(Cc3ccc4ccccc4c3)CC2)C1=O,3.67
18,NC(=O)CN1CCCC1=O,-0.0247
19,C#CCN1C(C)=C(C(=O)CCO)C(c2cccc(-n3oo3)c2)C(C(=O)OC)=C1C (stereo unspecified),2.66
20,CO[C@H]1C[C@H](OC2CCC3(C)C4CCC5(C)C(C6=CC(=O)OC6)CC(OC(C)=O)C5(O)C4CC[C@H]3C2)O[C@@H](C)[C@@H]1O (stereo partly specified),-2.73
21,CN1Cc2ccccc2[C@@H]2c3cccc4[nH]cc(c34)C[C@H]21,3.17
22,O=C1C=C2C=C[C@@H]3C[C@@]2(O1)[C@H]1CCCCN31,3.83
23,CC[N+]1(C)CCCC(OC(=O)C(O)(c2ccccc2)c2ccccc2)C1 (stereo unspecified),-1.53
